Results as given in patent publication US20240390327A1, “THERAPEUTIC COMPOSITIONS AND METHODS” (Johns Hopkins University, priority 2021, published 2024).
At least one structure is not confirmed: it was looked up by name or label, or the drawing left a doubt.

Tested on: rats with PCL syndrome
Test: Diffusion tensor imaging in PCL model
Assay type: in vivo, rat
Conditions: 11.7T MRI
Procedure: Diffusion Tensor Imaging was performed on an 11.7T Bruker MRI scanner. These images were processed to assign directional colors ([…] transverse, blue vertical, and green orthogonal to the plane).

For Cc1nc(C(=O)NCC(=O)O)c(O)c2ccc(Oc3ccccc3)cc12 [ROX], the “white matter microstructural integrity (directional color DTI)” value was “the microstructural integrity is altered and the colors are muted”.
